For one compound, Ki and IC50 results are on record in patent publication US8901313B2, “6,5-heterocyclic propargylic alcohol compounds and uses therefor” (Genentech, Inc., priority 2011, dated 2014).

Amino acid sequences for entries named in this document (tags omitted).
UniProt Q99558, whole entry: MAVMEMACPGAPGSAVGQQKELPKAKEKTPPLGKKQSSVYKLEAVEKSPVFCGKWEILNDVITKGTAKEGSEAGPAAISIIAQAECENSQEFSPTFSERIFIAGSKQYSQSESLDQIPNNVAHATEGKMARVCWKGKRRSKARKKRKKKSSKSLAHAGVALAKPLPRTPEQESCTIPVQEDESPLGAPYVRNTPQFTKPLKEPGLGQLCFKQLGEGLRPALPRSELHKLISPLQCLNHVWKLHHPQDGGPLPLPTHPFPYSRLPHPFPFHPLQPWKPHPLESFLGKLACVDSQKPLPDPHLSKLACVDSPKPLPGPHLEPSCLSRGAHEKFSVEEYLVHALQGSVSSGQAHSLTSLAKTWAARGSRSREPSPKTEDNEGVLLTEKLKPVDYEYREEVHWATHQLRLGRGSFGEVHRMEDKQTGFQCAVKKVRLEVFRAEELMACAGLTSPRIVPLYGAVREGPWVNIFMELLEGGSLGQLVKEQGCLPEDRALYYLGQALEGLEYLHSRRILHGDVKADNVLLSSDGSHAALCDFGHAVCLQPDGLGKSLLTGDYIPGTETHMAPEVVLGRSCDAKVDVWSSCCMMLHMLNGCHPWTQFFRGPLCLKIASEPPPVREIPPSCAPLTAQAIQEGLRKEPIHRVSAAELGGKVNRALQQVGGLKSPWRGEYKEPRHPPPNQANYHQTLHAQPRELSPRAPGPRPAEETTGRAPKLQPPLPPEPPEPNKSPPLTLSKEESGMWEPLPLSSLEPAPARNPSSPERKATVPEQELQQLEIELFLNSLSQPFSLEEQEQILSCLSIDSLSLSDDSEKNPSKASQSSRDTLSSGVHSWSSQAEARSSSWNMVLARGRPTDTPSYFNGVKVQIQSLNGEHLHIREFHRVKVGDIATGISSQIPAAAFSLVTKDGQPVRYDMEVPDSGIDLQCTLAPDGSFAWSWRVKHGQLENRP

The match of structure and compound is tentative. Some results are limits rather than exact numbers.

Assay [1] addresses nuclear factor-kappa B (NF-kB)-inducing kinase (NIK) (Homo sapiens, UniProt Q99558). The assay is described as follows: NIK Enzyme Inhibition Assay (Transcreener ADP assay). The conditions noted are these: read-out: NIK ADP (Ki); comparative data, Tables 16A-16D.
The test system of assay [2] is NF-kB signaling through NIK in human embryonic kidney 293 cells. The assay is described as follows: 293-NIK NF-kB-Luciferase reporter assay. The conditions noted are these: read-out: 293-NIK NF-kB-Luciferase (IC50); comparative data, Tables 16A-16D. The text has this:
(§1) (1) The first assay was used to profile whether a test compound can inhibit the NF-kB signally through NIK inhibition without affecting cell viability. In this assay, human embryonic kidney 293 cells was stably transfected with a tetracycline-inducible NIK DNA construct containing a cytomegalovirus promoter plus two reporter DNA constructs. One reporter encoded firefly luciferase under the control of three repeats of an NF-kB response element from the ELAM-1 gene and reflects the level of NIK activity in the cells, whereas the other reporter constitutively expressed Renilla luciferase under the control of the herpes simplex virus thymidine kinase promoter and served as a general measure of cell viability. Cells were incubated with different concentrations of compounds (0.2% DMSO final) in medium containing 1 ug/mL doxycycline and 10% tet-system approved fetal bovine serum (Clontech) for 24 hours, after which the reporters' signals were detected using the Dual Glo luciferase detection system (Promega) according to the vendor's protocol. […]
On the technique in general: In a reporter assay the amount or activity of a reporter protein is the signal.

The test system of assay [3] is p52 (NF-kB2) nuclear translocation in HeLa cells. The assay can be described thus: NIK p52 Translocation Assay (non-classical NF-kB signaling). The settings on record: read-out: NIK p52 Translocation (IC50); comparative data, Tables 16A-16D. The protocol:
(§2) (2) A second set of cell assay was used to define the selectivity of NIK inhibitors toward inhibition of classical vs. non-classical NF-kB signaling and rely on quantification of the nuclear translocation of p52 (NF-kB2) and REL-A (p65) using high content cellular imaging. For the p52 (non-classical NF-kB signaling) nuclear translocation assay, HeLa cells were treated with different concentrations of compounds (0.2% DMSO final) in medium containing 10% fetal bovine serum and then stimulated with 100 ng/mL of an anti-lymphotoxin beta receptor antibody (R&D Systems) for 5 hours. In the REL-A nuclear translocation assay, HeLa cells were incubated with compounds (0.2% DMSO final) for 4.5 hours in medium containing 10% fetal bovine serum before stimulating them with 10 ng/mL tumor necrosis factor (TNF)-α (R&D Systems) for 30 minutes. Cells were fixed with 4% paraformaldehyde, permeabilized by adding 0.1% Triton X-100 in phosphate buffered saline, and then incubated with either 2 ug/mL anti-p52 antibody (Millipore) or 400 ng/mL anti-REL-A (p65) antibody (Santa Cruz Biotechnology). […] Imaging was carried out using an Opera reader (Perkin Elmer) and data are analyzed with the aid of Acapella software (Perkin Elmer). The p52 or REL-A translocation into the nucleus was quantified by the ratio of the nuclear to cytoplasmic signal intensity. […]

Assay [4] concerns human embryonic kidney 293 cells. The assay is described as follows: 293-NIK TK Renilla Luciferase reporter (general measure of cell viability). The settings on record: read-out: 293-NIK TK Renilla Luciferase (IC50); comparative data, Tables 16A-16D.
Text: as §1

Assay [5] concerns REL-A (p65) nuclear translocation in HeLa cells. The assay can be described thus: NIK RelA Translocation Assay (classical NF-kB signaling). The settings on record: read-out: NIK RelA Translocation (IC50); comparative data, Tables 16A-16D. The protocol: as §2

As to `CC(O)(C#Cc1ccc2[nH]c(=O)n(-c3ccnc(N)n3)c2c1)c1nccs1` (centres unmarked) [Example T1-21, 1-(2-aminopyrimidin-4-yl)-6-(3-hydroxy-3-(thiazol-2-yl)but-1-ynyl)-1H-benzo[d] imidazol-2(3H)-one], the inhibitory constant (Ki) in assay [1] is 0.3 nM. In addition, the IC50 was 590 nM in assay [2], 514 nM in assay [3], 5200 nM in assay [4] and > 20000 nM in assay [5].

In general, Ki refers to a measure of affinity in units of concentration, obtained from inhibition or displacement. As a reminder, the IC50 is the concentration that gives 50% inhibition.
